Measured values: PMC12557800
No constants are given. Whether binding was seen depends on the method and setting. Binding seen in cells or lysates may run through a third protein. Some binding calls cover weakened binding; strength is not graded here. Tags and fused reporters may be left off the sequences shown. Each block holds one binder with its values, some of them ahead of it.

Legend:
[1] = molecular target: T1, human SLC9C1-3xFLAG (human) (UniProt Q4G0N8); assay: co-IP; human TMEM217-PA and human SLC9C1-3xFLAG constructs; cells and antibodies not told in the main text (SI Appendix, Fig. S4C)
T1 sequence: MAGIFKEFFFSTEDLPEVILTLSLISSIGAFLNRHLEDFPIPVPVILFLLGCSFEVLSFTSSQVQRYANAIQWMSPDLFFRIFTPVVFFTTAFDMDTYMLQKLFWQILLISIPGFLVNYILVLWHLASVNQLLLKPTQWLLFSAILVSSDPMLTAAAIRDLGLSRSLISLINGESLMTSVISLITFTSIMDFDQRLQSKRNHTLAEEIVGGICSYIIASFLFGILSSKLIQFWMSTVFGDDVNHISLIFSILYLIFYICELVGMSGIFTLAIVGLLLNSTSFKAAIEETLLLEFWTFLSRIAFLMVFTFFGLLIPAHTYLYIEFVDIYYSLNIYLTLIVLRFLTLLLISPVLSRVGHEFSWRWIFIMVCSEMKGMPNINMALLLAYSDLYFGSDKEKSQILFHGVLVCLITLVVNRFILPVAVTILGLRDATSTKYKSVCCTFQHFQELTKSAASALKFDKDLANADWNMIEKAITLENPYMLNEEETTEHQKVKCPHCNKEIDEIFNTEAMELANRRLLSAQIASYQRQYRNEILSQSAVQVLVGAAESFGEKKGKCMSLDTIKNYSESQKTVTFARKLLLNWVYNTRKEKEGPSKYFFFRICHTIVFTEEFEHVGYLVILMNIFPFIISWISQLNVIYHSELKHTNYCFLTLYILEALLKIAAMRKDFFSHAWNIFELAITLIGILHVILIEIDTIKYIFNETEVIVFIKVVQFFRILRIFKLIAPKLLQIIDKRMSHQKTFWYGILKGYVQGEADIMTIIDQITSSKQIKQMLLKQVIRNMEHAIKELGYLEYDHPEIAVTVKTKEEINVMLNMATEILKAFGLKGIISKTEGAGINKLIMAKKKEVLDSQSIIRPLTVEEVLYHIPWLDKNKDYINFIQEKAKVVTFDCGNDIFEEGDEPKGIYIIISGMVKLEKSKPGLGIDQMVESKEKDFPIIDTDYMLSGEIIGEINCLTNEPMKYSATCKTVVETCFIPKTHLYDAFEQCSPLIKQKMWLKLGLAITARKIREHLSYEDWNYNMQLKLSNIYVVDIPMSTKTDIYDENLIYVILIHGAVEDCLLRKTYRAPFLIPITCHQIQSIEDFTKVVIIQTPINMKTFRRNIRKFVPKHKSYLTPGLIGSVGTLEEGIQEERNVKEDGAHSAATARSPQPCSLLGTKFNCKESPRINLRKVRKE

[2] = molecular target: T2, mouse full-length SLC9C1-PA (mouse) (UniProt Q6UJY2); assay: co-IP; HEK293T cell lysates coexpressing mouse TMEM217-3xFLAG and mouse SLC9C1-PA (full length or truncated); IP with anti-FLAG or anti-PA antibodies, immunoblot with FLAG and PA antibodies
T2 sequence: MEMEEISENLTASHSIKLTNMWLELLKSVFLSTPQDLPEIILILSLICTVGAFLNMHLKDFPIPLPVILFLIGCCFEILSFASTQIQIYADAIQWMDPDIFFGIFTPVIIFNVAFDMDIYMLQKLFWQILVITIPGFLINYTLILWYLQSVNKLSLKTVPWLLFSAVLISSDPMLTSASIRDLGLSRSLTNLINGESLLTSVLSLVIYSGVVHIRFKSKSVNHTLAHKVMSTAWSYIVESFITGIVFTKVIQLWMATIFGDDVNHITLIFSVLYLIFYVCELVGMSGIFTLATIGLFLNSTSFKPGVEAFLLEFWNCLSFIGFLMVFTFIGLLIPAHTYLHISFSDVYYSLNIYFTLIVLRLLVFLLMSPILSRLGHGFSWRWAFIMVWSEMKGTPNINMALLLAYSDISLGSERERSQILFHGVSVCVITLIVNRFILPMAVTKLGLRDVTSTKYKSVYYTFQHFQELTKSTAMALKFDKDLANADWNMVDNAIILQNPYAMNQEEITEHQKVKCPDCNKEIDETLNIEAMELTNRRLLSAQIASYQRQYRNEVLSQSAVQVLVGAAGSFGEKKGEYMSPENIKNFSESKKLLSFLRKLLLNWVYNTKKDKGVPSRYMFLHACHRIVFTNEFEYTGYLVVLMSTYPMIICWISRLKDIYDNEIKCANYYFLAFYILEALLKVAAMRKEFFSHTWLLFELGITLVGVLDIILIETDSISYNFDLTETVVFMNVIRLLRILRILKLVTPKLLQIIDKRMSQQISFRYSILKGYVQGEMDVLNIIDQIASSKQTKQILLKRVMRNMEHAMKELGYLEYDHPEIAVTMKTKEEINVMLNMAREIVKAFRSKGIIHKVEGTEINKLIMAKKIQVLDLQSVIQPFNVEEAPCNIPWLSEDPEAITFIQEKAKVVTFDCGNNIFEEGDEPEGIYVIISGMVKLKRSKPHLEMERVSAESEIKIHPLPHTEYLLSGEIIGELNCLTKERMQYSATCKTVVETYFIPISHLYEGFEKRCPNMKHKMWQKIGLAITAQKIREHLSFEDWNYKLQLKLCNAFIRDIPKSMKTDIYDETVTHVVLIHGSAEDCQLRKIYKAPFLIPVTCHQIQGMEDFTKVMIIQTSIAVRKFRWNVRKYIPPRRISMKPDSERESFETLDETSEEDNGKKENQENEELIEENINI

[3] = molecular target: T3, TMEM217-3xFLAG (mouse, transgene in Tmem217-3xFLAG Tg mice) (mouse) (UniProt Q14AF1); assay: co-IP; FLAG IP of testis samples, immunoblot for SLC9C1 and TMEM217-3xFLAG
T3 sequence: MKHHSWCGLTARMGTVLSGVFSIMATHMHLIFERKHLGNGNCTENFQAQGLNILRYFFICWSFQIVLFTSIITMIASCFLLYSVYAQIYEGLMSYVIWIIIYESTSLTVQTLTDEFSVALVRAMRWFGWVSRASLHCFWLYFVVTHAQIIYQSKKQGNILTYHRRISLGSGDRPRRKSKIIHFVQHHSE

binding [1]: binds
B1: human TMEM217-PA (protein, UniProt Q8N7C4 1-229)
chain: MKQQQWCGMTAKMGTVLSGVFTIMAVDMYLIFEQKHLGNGSCTEITPKYRGASNIINNFIICWSFKIVLFLSFITILISCFLLYSVYAQIFRGLVIYIVWIFFYETANVVIQILTNNDFDIKEVRIMRWFGLVSRTVMHCFWMFFVINYAHITYKNRSQGNIISYKRRISTAEILHSRNKRLSISSGFSGSHLESQYFERQSFHTSIFTCLSPVPSSAPSTCRYTIDVC

binding [2]: binds
B2: mouse TMEM217-3xFLAG expressed in HEK293T cells (protein, UniProt Q14AF1 1-189)
chain: MKHHSWCGLTARMGTVLSGVFSIMATHMHLIFERKHLGNGNCTENFQAQGLNILRYFFICWSFQIVLFTSIITMIASCFLLYSVYAQIYEGLMSYVIWIIIYESTSLTVQTLTDEFSVALVRAMRWFGWVSRASLHCFWLYFVVTHAQIIYQSKKQGNILTYHRRISLGSGDRPRRKSKIIHFVQHHSE

binding [3]: binds
B3: SLC9C1 (sperm-specific Na+/H+ exchanger), endogenous in mouse testis (protein, UniProt Q6UJY2 1-1175)
chain: MEMEEISENLTASHSIKLTNMWLELLKSVFLSTPQDLPEIILILSLICTVGAFLNMHLKDFPIPLPVILFLIGCCFEILSFASTQIQIYADAIQWMDPDIFFGIFTPVIIFNVAFDMDIYMLQKLFWQILVITIPGFLINYTLILWYLQSVNKLSLKTVPWLLFSAVLISSDPMLTSASIRDLGLSRSLTNLINGESLLTSVLSLVIYSGVVHIRFKSKSVNHTLAHKVMSTAWSYIVESFITGIVFTKVIQLWMATIFGDDVNHITLIFSVLYLIFYVCELVGMSGIFTLATIGLFLNSTSFKPGVEAFLLEFWNCLSFIGFLMVFTFIGLLIPAHTYLHISFSDVYYSLNIYFTLIVLRLLVFLLMSPILSRLGHGFSWRWAFIMVWSEMKGTPNINMALLLAYSDISLGSERERSQILFHGVSVCVITLIVNRFILPMAVTKLGLRDVTSTKYKSVYYTFQHFQELTKSTAMALKFDKDLANADWNMVDNAIILQNPYAMNQEEITEHQKVKCPDCNKEIDETLNIEAMELTNRRLLSAQIASYQRQYRNEVLSQSAVQVLVGAAGSFGEKKGEYMSPENIKNFSESKKLLSFLRKLLLNWVYNTKKDKGVPSRYMFLHACHRIVFTNEFEYTGYLVVLMSTYPMIICWISRLKDIYDNEIKCANYYFLAFYILEALLKVAAMRKEFFSHTWLLFELGITLVGVLDIILIETDSISYNFDLTETVVFMNVIRLLRILRILKLVTPKLLQIIDKRMSQQISFRYSILKGYVQGEMDVLNIIDQIASSKQTKQILLKRVMRNMEHAMKELGYLEYDHPEIAVTMKTKEEINVMLNMAREIVKAFRSKGIIHKVEGTEINKLIMAKKIQVLDLQSVIQPFNVEEAPCNIPWLSEDPEAITFIQEKAKVVTFDCGNNIFEEGDEPEGIYVIISGMVKLKRSKPHLEMERVSAESEIKIHPLPHTEYLLSGEIIGELNCLTKERMQYSATCKTVVETYFIPISHLYEGFEKRCPNMKHKMWQKIGLAITAQKIREHLSFEDWNYKLQLKLCNAFIRDIPKSMKTDIYDETVTHVVLIHGSAEDCQLRKIYKAPFLIPVTCHQIQGMEDFTKVMIIQTSIAVRKFRWNVRKYIPPRRISMKPDSERESFETLDETSEEDNGKKENQENEELIEENINI
